According to paper PMC11317155:
These are yes or no findings as the source states them, for the method shown. Some entries that bind do so weakly or less than the wild type. Where a sequence is shown, tags or fusion partners need not be part of it.

Biological target: T1, YlmH with a C-terminal FLAG-tag (YlmH-FLAG) (B. subtilis) (UniProt P71020)
T1 sequence: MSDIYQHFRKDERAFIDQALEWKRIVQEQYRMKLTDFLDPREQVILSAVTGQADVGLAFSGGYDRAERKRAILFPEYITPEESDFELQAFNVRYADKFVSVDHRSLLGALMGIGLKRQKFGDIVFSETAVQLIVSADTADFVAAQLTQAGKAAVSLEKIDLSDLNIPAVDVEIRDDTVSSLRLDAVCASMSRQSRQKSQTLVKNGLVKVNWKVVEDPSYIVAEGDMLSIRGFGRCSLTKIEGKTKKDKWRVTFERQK
Assay: cryo-EM structure; single particle cryo-EM of ex vivo YlmH-FLAG complexes eluted from anti-Flag beads; State 1 (YlmH, P-tRNA, 50S) and State 2 (YlmH, RqcH, A- and P-tRNA, 50S)

binding: binds
B1: RqcH (protein, UniProt O34693 1-570)
chain: MSFDGMFTYGMTHELNEKIMGGRITKIHQPYKHDVIFHIRAKGKNQKLLLSAHPSYSRVHITAQAYENPSEPPMFCMLLRKHIEGGFIEKIEQAGLDRIMIFHIKSRNEIGDETVRKLYVEIMGRHSNIILTDAAENVIIDGLKHLSPSMNSYRTVLPGQDYKLPPAQDKISPLEASEDDILRHLSFQEGRLDKQIVDHFSGVSPLFAKEAVHRAGLANKVTLPKALLALFAEVKEHRFIPNITTVNGKEYFYLLELTHLKGEARRFDSLSELLDRFYFGKAERDRVKQQAQDLERFVVNERKKNANKIKKLEKTLEYSENAKEFQLYGELLTANLYMLKKGDKQAEVINYYDEESPTITIPLNPNKTPSENAQAYFTKYQKAKNSVAVVEEQIRLAQEEIEYFDQLIQQLSSASPRDISEIREELVEGKYLRPKQQKGQKKQKPHNPVLETYESTSGLTILVGKNNRQNEYLTTRVAARDDIWLHTKDIPGSHVVIRSSEPDEQTIMEAATIAAYFSKAKDSSSVPVDYTKIRHVKKPNGAKPGFVTYDSQHTVFVTPDADTVIKLKKS
